PubChem BioAssay AID1508597, Cure First – 2020

Assay: 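Genes whose silencing sensitises or protects ovarian cancer cells against rucaparib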 (primary screen)
Cell system: human ovarian carcinoma lines grown from tumours: OCI-P5x (papillary serous) and OCI-C5x (clear cell)
Reagent: siRNA pool against human genes, 1.25 pmol siRNA per well
Time to read-out: 72 h or 96 h, depending on the cell culture
Conditions: rucaparib 20 µM (about IC30) or vehicle, present until read-out
Rucaparib or vehicle: Vehicle
Cell line: OCI-C5x (clear cell)
Read-out: 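Luminescent ATP-based viability assay read 72 or 96 h after transfection, depending on culture, given as normalised percent viability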
Reading the numbers: viability, normalised: higher = more viable cells remaining
Active means: 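a well counts as a hit if its normalised viability is under 80 percent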
Meaning of the calls: active = viability under 80%; inactive = viability 80% or more
Shown is an unselected part of the about 2,100 reagents, in one setting of the screen. 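Calls flag viability under 80% in either arm, not effects specific to rucaparib; the reference for percent is not stated.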 Not given: the 100% reference.

gene symbol	technical replicate	viability, normalised (%)	Call
ZDHHC15	1	60.8	active
ZDHHC15	2	67.8	active
ZDHHC15	3	61.9	active
PTK6	1	51.8	active
PTK6	2	52.2	active
PTK6	3	54.3	active
APOA2	1	15.5	active
APOA2	2	17.4	active
APOA2	3	14.9	active
FBXL19	1	52.1	active
FBXL19	2	56.4	active
FBXL19	3	53.2	active
DDX20	1	36.8	active
DDX20	2	59.2	active
DDX20	3	50.9	active
BCOR	1	42.1	active
BCOR	2	34.2	active
BCOR	3	42.4	active
ARID1B	1	47.3	active
ARID1B	2	53.1	active
ARID1B	3	44.4	active
ALPK2	1	82.2	inactive
ALPK2	2	71	active
ALPK2	3	77.6	active
DGKH	1	51.7	active
DGKH	2	51.2	active
DGKH	3	69.8	active
ING2	1	72.1	active
ING2	2	61.9	active
ING2	3	49.2	active
EDF1	1	41.2	active
EDF1	2	55.6	active
EDF1	3	12.3	active
GK2	1	37.5	active
GK2	2	35.8	active
GK2	3	29.6	active
MAP2K2	1	38.8	active
MAP2K2	2	52.4	active
MAP2K2	3	43	active
PGK1	1	51.3	active
PGK1	2	56.3	active
PGK1	3	49.1	active
CSF1R	1	45.4	active
CSF1R	2	55.2	active
CSF1R	3	45.5	active
URI1	1	68.6	active
URI1	2	70.7	active
URI1	3	66.7	active
LPA	1	61.4	active
LPA	2	58.4	active
LPA	3	58.4	active
COX6C	1	55.8	active
COX6C	2	46.4	active
COX6C	3	56.1	active
ERCC6L	1	74.7	active
ERCC6L	2	54.3	active
ERCC6L	3	42.1	active

Copied from the listing, 3 entries:
gene symbol	technical replicate	viability, normalised (%)	Call
ZDHHC15	1	60.8	active
ZDHHC15	2	67.8	active
ZDHHC15	3	61.9	active
